Test results published in publication doi:10.1101/172809.
These are yes or no findings as the source states them, for the method shown. Some entries that bind do so weakly or less than the wild type.

Protein sequences, listed by entry. Tags and fused reporters are not part of them. Lines headed by an entry give the natural chain unless they say otherwise; changes in a name come on top. Chains listed by the source or under a name are the forms on record and can include a tag or linker.
Dynamin-Related Protein 1 (DRP1), wild type, full length, isoform 2 (O00429, form named): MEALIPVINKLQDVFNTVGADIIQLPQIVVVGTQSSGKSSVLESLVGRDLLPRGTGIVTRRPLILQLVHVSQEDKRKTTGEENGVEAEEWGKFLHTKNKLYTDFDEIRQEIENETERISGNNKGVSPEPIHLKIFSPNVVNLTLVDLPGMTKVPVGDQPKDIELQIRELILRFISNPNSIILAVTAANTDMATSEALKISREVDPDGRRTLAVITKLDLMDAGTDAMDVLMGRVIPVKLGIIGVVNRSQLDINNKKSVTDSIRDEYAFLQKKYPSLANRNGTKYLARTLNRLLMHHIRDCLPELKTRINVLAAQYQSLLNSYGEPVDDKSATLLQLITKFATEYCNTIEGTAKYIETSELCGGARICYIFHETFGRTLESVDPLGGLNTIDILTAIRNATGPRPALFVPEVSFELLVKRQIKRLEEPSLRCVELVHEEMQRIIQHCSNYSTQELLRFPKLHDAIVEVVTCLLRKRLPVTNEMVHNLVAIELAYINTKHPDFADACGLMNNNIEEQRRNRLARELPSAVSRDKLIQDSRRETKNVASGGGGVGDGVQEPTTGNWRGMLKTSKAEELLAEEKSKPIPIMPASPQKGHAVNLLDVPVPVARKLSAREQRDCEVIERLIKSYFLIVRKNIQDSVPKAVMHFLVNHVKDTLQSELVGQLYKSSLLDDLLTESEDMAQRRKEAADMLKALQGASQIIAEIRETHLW
DRP1_(G362D), full length, disease-associated mutant (O00429, form named): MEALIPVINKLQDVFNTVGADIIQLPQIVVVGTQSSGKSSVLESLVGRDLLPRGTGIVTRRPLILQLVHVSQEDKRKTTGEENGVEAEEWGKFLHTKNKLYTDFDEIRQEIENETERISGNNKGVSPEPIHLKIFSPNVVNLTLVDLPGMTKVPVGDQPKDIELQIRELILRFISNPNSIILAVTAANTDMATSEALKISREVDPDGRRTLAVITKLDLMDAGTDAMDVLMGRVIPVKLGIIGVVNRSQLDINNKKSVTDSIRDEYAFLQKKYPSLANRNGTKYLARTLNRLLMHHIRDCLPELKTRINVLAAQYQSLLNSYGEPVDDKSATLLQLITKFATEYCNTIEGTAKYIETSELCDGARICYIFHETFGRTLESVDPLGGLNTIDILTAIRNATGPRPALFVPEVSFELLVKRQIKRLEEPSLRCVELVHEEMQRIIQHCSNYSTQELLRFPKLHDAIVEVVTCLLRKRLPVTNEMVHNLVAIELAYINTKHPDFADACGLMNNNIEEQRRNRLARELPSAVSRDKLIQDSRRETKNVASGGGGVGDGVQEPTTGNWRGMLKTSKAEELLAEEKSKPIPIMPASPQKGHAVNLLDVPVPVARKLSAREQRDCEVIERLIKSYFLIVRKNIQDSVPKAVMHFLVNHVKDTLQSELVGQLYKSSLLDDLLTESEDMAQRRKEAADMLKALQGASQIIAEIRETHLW
DRP1_(D221A), full length (O00429, form named): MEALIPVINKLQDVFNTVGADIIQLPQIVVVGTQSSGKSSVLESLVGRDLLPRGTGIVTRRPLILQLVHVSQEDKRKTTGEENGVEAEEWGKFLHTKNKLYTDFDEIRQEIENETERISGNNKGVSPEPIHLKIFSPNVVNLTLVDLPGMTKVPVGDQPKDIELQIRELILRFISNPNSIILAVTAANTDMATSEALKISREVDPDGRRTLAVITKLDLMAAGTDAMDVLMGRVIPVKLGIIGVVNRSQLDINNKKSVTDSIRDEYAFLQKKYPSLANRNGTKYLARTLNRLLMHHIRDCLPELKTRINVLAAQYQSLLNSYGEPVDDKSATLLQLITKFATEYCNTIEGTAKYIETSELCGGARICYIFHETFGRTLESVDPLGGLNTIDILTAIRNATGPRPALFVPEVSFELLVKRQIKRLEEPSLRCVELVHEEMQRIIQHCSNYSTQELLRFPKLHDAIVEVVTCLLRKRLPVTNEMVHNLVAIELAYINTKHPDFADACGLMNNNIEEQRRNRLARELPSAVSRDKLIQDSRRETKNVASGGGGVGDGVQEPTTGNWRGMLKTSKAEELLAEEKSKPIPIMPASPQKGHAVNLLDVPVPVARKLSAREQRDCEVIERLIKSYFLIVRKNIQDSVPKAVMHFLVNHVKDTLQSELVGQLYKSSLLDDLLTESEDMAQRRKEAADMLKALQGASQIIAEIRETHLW
DRP1_(D190A), full length (O00429, form named): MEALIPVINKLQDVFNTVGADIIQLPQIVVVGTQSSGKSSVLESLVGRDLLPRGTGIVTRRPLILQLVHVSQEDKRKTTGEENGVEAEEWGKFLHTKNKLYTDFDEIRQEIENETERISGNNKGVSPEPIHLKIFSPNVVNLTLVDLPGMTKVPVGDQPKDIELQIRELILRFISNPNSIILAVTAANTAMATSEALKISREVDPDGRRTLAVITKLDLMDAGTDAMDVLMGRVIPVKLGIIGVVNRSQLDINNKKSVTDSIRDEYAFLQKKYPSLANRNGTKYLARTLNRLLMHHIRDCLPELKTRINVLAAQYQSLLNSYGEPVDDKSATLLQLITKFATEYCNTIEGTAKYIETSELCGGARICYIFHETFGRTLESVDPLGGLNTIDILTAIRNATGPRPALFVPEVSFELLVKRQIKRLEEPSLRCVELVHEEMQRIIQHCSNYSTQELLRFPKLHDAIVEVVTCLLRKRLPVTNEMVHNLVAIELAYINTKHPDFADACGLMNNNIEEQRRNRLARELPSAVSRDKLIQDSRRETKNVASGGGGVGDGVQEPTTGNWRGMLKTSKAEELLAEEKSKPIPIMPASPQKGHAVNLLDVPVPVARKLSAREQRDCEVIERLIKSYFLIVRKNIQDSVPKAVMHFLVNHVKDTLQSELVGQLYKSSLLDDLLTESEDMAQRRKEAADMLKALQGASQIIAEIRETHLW

How the values were obtained:
Test in all cases: negative stain electron microscopy of assembly and coassembly reactions
[1] = molecular target: Dynamin-Related Protein 1 (DRP1), wild type, full length, isoform 2 (human) (UniProt O00429)
[2] = molecular target: DRP1_(G362D), full length, disease-associated mutant (human) (UniProt O00429)
[3] = molecular target: DRP1_(D221A), full length (human) (UniProt O00429)
[4] = molecular target: DRP1_(D190A), full length (human) (UniProt O00429)

binding [1]	binding [2]	binding [3]	binding [4]	Binder
binds				Mitochondrial Dynamics 51, MID51_(132-463) (domain or fragment, UniProt Q9NQG6 132-463) RMSLQEKLLTYYRNRAAIPAGEQARAKQAAVDICAELRSFLRAKLPDMPLRDMYLSGSLYDDLQVVTADHIQLIVPLVLEQNLWSCIPGEDTIMNVPGFFLVRRENPEYFPRGSSYWDRCVVGGYLSPKTVADTFEKVVAGSINWPAIGSLLDYVIRPAPPPEALTLEVQYERDKHLFIDFLPSVTLGDTVLVAKPHRLAQYDNLWRLSLRPAETARLRALDQADSGCRSLCLKILKAICKSTPALGHLTASQLTNVILHLAQEEADWSPDMLADRFLQALRGLISYLEAGVLPSALNPKVNLFAELTPEEIDELGYTLYCSLSEPEVLLQT
	no binding	no binding	no binding	Mitochondrial Dynamics 49, MID49_(126-454) (domain or fragment, UniProt Q96C03-1 126-454) TLQERLLAFERDRVTIPAAQVALAKQLAGDIALELQAYFRSKFPELPFGAFVPGGPLYDGLQAGAADHVRLLVPLVLEPGLWSLVPGVDTVARDPRCWAVRRTQLEFCPRGSSPWDRFLVGGYLSSRVLLELLRKALAASVNWPAIGSLLGCLIRPSMASEELLLEVQHERLELTVAVLVAVPGVDADDRLLLAWPLEGLAGNLWLQDLYPVEAARLRALDDHDAGTRRRLLLLLCAVCRGCSALGQLGRGHLTQVVLRLGEDNVDWTEEALGERFLQALELLIGSLEQASLPCHFNPSVNLFSSLREEEIDDIGYALYSGLQEPEGLL
